# Laboratory results taken from patent publication US11152578B2, “Sulfonium salts of DNTT and related compounds as soluble photocleavable precursors for organic semiconductors for use in organic field-effect transistors” (Clap Co., Ltd., priority 2017, dated 2021).
# Assay: Electrical measurement of bottom-gate top-contact organic field-effect transistor with semiconducting material deriving from the precursor compound
# Details: OFET
# Method: A heavily doped n-type silicon wafers with a thermally-grown silicon dioxide layer (200 nm) were cleaned with isopropanol and treated with a solution of octadecyl trichlorosilane in toluene. The solution of the compound 1Aa in chloroform was spin coated at 3000 rpm for 30 sec and annealed at 90° C. for 30 seconds. A 50 nm-thick of Au layer for source and drain electrodes was deposited through a shadow mask to give top contact OFET devices. The substrate was exposed to deep ultraviolet (UV) light (energy density of 2 J/cm^2) and annealed at 90° C. The channel width (W) was 1000 μm and channel length (L) was 62 μm. A sample without light exposure was also prepared and evaluated as a comparison.
# All electrical measurements were performed in ambient air in the dark using a 4200-SCS Keithley parameter analyzer.
# In FIG. 1 the drain-source current IDS in relation to the gate-source voltage VGS (transfer curve) for field effect transistor comprising a semiconducting material deriving from compound 1Aa at a drain-source voltage VDS of −80V is shown.
# The charge-carrier mobility (μ) was extracted in the saturation regime from the slope of (IDS)^1/2 versus VGS using the equation μ=2 L/(W*Ci)*(dIDS½/dVGS)^2, wherein L is the channel length, W is the channel width, Ci is the capacitance per unit area of the dielectric layer, IDS is the drain-source current, and VGS is the gate-source voltage.
# The threshold voltage (Vth) was extracted from the intersection of the linear extrapolation of the IDS^1/2 versus VGS plot with the VGS axis.
# [1] = UV exposure 0 mJ/cm^2 (without light exposure)
structure (smiles),measurement,setting,value
CCC(C)(C)c1ccc(-[s+]2c3cc4ccccc4cc3c3sc4cc5ccccc5cc4c32)cc1.F[B-](F)(F)F (stereo not drawn) [Compound 1Aa],I on/off,[1],Not detected
same,Vth [V] (threshold voltage),[1],Not detected
same,μ [cm^2/Vs] (charge-carrier mobility),[1],Not detected
same,I on/off,"UV exposure 2000 mJ/cm^2, annealed at 90° C.",1.0E+04
same,Vth [V] (threshold voltage),"UV exposure 2000 mJ/cm^2, annealed at 90° C., VDS −80V",−38.2 V
same,μ [cm^2/Vs] (charge-carrier mobility),"UV exposure 2000 mJ/cm^2, annealed at 90° C., saturation regime",0.003 cm^2/Vs
